Measured values taken from PMC7616174, “Development of Novel 4-Arylpyridin-2-one and 6-Arylpyrimidin-4-one Positive Allosteric Modulators of the M1 Muscarinic Acetylcholine Receptor” (ChemMedChem, 2020).
These are yes or no findings as the source states them, for the method shown. Binding seen in cells or lysates may run through a third protein. Some binding calls cover weakened binding; strength is not graded here.

Chains of the proteins cited; added tags and fusions are not shown.
UniProt P11229: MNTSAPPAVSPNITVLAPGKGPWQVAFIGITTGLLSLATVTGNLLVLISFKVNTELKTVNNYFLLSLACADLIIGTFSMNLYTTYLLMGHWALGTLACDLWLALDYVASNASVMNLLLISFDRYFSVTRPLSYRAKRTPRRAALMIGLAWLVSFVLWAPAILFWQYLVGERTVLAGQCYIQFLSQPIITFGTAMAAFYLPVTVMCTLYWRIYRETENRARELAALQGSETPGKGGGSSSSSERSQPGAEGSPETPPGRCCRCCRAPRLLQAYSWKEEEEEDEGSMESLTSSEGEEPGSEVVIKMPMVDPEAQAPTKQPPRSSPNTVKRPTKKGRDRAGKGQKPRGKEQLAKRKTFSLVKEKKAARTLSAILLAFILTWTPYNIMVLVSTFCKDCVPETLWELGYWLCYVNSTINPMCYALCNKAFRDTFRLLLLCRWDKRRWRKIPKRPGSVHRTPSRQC
UniProt P32121: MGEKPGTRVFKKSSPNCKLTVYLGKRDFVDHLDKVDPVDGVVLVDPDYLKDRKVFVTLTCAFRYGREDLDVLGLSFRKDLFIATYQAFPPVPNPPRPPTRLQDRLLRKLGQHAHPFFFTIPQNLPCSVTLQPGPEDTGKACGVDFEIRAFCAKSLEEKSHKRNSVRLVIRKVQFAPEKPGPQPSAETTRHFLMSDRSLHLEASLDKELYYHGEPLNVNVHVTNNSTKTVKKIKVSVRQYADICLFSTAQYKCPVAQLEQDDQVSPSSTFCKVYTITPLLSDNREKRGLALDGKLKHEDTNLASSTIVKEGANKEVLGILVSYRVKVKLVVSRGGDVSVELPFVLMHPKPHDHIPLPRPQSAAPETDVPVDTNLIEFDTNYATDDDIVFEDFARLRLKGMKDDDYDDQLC

Target: M1 muscarinic acetylcholine receptor fused to Renilla luciferase 8 (human) (UniProt P11229)
Test: FRET or BRET; β-arrestin 2 recruitment in live parental FlpIn CHO cells transiently co-transfected with M1-Rluc8 (10 ng/well) and YFP-β-arrestin 2 (40 ng/well); Hanks' balanced salt solution, 37°C; coelenterazine h 5 μM; increasing ACh with or without allosteric modulator; read 5 min after agonist; BRET ratio YFP/Rluc8 normalised to the maximum ACh response

For “YFP-β-arrestin 2 (from UniProt P32121 1-409)”, the binding was “binds”.
